In patent US20250257401A1, “BIOMARKER FOR TUBEROUS SCLEROSIS COMPLEX WITH NO MUTATION IDENTIFIED IN TSC1 OR TSC2 GENE, AND USES THEREOF” (Guangzhou KingMed Transformative Medicine Institute Co., …, priority 2022, published 2025):
For at least one compound, name, drawing or mass did not settle the structure.

Test system: IQGAP2-silenced cells
Assay: Cell proliferation of IQGAP2-silenced cells after administration of inhibitors (CCK8)
Type: cell-based, human
Details: IQGAP2-silenced HaCaT and HEK293 cells; each inhibitor in a dose of IC50; FIG. 7 and FIG. 8

CO[C@H]1C[C@@H]2CC[C@@H](C)[C@@](O)(O2)C(=O)C(=O)N2CCCC[C@H]2C(=O)O[C@H]([C@H](C)C[C@@H]2CC[C@@H](O)[C@H](OC)C2)CC(=O)[C@H](C)/C=C(\C)[C@@H](O)[C@@H](OC)C(=O)[C@H](C)C[C@H](C)/C=C/C=C/C=C/1C [Rapamycin]
cell proliferation of IQGAP2-silenced cells: reduce the cell proliferation
